In patent US20100040623A1, “NEURITOGENIC AND NEURONAL SURVIVAL PROMOTING PEPTIDES DERIVED FROM THE FAMILY OF S-100 PROTEINS” (priority 2005, published 2010):
Some of these results come from one statement about several compounds together.

System: primary cerebellar neurons
Test: Neuronal survival after lowering KCl (apoptosis induction)
Assay type: cell-based
Conditions: 7 days in 40 mM KCl, then KCl lowered to 5 mM

## KELLTRELPSFLGKRT [A4H3, tetrameric peptide (hekatone) representing region 3 of S100A4]
  increase of neuronal survival: 30-40%

## NEFFEGFPDKQPRKK [A4H6, tetrameric peptide (hekatone) representing region 6 of S100A4]
  increase of neuronal survival: 30-40%
